PubChem BioAssay AID686938 | Drosophila RNAi Screening Center – 2013
In all, the deposit lists about 23,000 reagents; below is an unselected part of those with a known target gene and a result. Of all reagents, 75 (0.33%) were called active. 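Raw plate signals without normalisation; calls rest on plate z-scores that were not deposited; ratio present for only 364 wells.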 The numbers tell different reagents against one gene apart. A plus sign joins genes that one reagent is predicted to hit. No sequences are given here. Not given: the dose of the treatment.

Test: 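Fly genes required for calcium entry once internal stores are emptied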 (primary screen)
Cells: Drosophila S2R+ cells
Reagents: long dsRNA against Drosophila genes, about 0.25 µg dsRNA per well, roughly 10,000 cells
Timing: 5 days of knock-down before the calcium assay
Treatment: thapsigargin (SERCA pump blocker) to empty calcium stores; entry signal taken 4 min after adding it
Read-out: 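Per-well fluo-4 fluorescence in two replicates, unnormalised, measured in resting cells and 4 min after store depletion by the SERCA blocker thapsigargin; ratio of the two present in few wells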
Direction: calcium entry signal: higher = stronger calcium signal after store depletion; resting calcium signal: higher = higher resting calcium signal
Rule for the call: 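Called when the plate z-score of the entry-to-rest ratio, mean of duplicates, falls below −3; wells with low overall dye signal (Fmax z below −2) or more than five off-targets excluded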
Calls: active = strongly reduced calcium entry; inactive = no strong reduction

no.	target gene	reagent	calcium entry signal, replicate 1 (fluorescence units)	calcium entry signal, replicate 2 (fluorescence units)	resting calcium signal, replicate 1 (fluorescence units)	resting calcium signal, replicate 2 (fluorescence units)	Outcome
1	Tbce	1	3.54e7		1.67e7		inactive
2	stck	1	3.81e7	3.31e7	1.86e7	1.68e7	inactive
3	CG1137	1	4.46e7	2.44e7	2.14e7	1.25e7	inactive
4	cpa	1	3.28e7		1.72e7		inactive
5	CG30273	1	2.86e7	4.67e7	1.39e7	2.46e7	inactive
6	Khc	1	3.50e7	3.20e7	1.57e7	1.57e7	inactive
7	CG2120	1	2.98e7	3.98e7	1.52e7	1.89e7	inactive
8	Task6	1	3.11e7	5.94e7	1.59e7	6.60e7	inactive
9	CG42324	1	3.06e7	4.92e7	1.68e7	1.98e7	inactive
10	CG42324	2	3.32e7	4.45e7	1.79e7	2.01e7	inactive
11	Cht7 + tRNA:Cys-GCA-1-4 + tRNA:Lys-CTT-1-13	1	1.50e7	4.43e7	8.89e6	1.94e7	inactive
12	CG11674	1	3.31e7	3.70e7	1.35e7	1.63e7	inactive
13	CG42726 + CG42727	1	3.96e7	4.72e7	1.69e7	1.95e7	inactive
14	CG8785	1	4.65e7	4.48e7	1.89e7	1.96e7	inactive
15	mRpL48	1	4.32e7	5.82e7	1.83e7	2.25e7	inactive
16	insb	1	5.39e7	4.65e7	2.35e7	2.20e7	inactive
17	Sgs7	1	2.77e7	3.92e7	1.55e7	1.82e7	inactive
18	Tak1	1	4.02e7	4.01e7	1.93e7	1.92e7	inactive
19	Tak1	2	5.63e7	4.50e7	2.66e7	1.91e7	inactive
20	Tak1	3	5.38e7	5.08e7	2.34e7	2.07e7	inactive
21	CG5466	1	1.69e7	2.11e7	1.18e7	1.24e7	inactive
22	CG5466	2	3.87e7	4.47e7	1.77e7	1.81e7	inactive
23	CG5225	1	3.50e7	6.56e7	1.57e7	6.59e7	inactive
24	jigr1	1	3.27e7	3.95e7	1.59e7	1.90e7	inactive
25	jigr1	2	3.84e7	3.23e7	1.86e7	1.36e7	inactive
26	jigr1	3	4.12e7	3.78e7	2.43e7	1.84e7	inactive
27	geko	1	3.59e7	5.53e7	1.71e7	2.05e7	inactive
28	geko	2	3.86e7	5.25e7	1.71e7	1.89e7	inactive
29	CG9986	1	6.01e7	4.97e7	2.53e7	2.38e7	inactive
30	Ndc1	1	3.52e7	2.86e7	2.00e7	1.63e7	inactive
31	snu	1	5.09e7	4.92e7	2.20e7	2.24e7	inactive
32	Wnt4	1	2.67e7	3.67e7	1.64e7	1.68e7	inactive
33	Wnt4	2	3.88e7	3.16e7	1.92e7	1.54e7	inactive
34	CG11964	1	2.93e7	2.95e7	1.27e7	1.43e7	inactive
35	CG31195	1	4.58e7	2.99e7	2.27e7	1.50e7	inactive
36	CG9500	1	3.87e7	3.97e7	2.07e7	1.82e7	inactive
37	bnb	1	4.95e7	5.09e7	2.22e7	2.20e7	inactive
38	Chmp1	1	3.04e7	4.56e7	1.41e7	3.13e7	inactive
39	ppk27	1	3.03e7	4.36e7	1.55e7	1.89e7	inactive
40	ppk27	2	3.85e7	7.66e7	1.75e7	3.13e7	inactive
41	CG31612	1	3.83e7	1.89e7	2.04e7	1.10e7	inactive
42	CG31612	2	4.25e7	4.43e7	2.09e7	1.88e7	inactive
43	CG16758	1	4.51e7	4.47e7	2.33e7	2.06e7	inactive
44	CG16758	2	4.61e7	4.02e7	2.01e7	1.96e7	inactive
45	CG42834	1	4.17e7	2.28e7	1.90e7	1.18e7	inactive
46	PIP82	1	4.19e7	3.98e7	1.85e7	1.78e7	inactive
47	Cyp4s3	1	3.81e7	3.09e7	1.96e7	1.46e7	inactive
48	Cyp4s3	2	3.80e7	6.34e7	1.89e7	2.94e7	inactive
49	LUBEL	1	3.35e7	3.32e7	1.58e7	1.65e7	inactive
50	Gr64a	1	3.00e7	2.52e7	1.58e7	1.23e7	inactive
51	CG15822	1	2.78e7	3.89e7	1.43e7	1.74e7	inactive
52	CG15822	2	2.97e7	3.48e7	1.45e7	1.64e7	inactive
53	prd1	1	3.13e7	4.05e7	1.66e7	2.01e7	inactive
54	CG6495	1	5.63e7		2.55e7		inactive
55	CG3609	1	3.67e7	3.63e7	1.67e7	1.64e7	inactive
56	CG32762	1	2.62e7	3.88e7	1.41e7	1.95e7	inactive
57	Cpr65Ea	1	3.52e7	4.32e7	1.65e7	1.89e7	inactive
58	CG31051	1	5.26e7	4.57e7	2.60e7	2.53e7	inactive
